Results are given in words; binding and its absence hold for the method and conditions named. Binding seen in cells or lysates may run through a third protein. Some entries that bind do so weakly or less than the wild type. For some of these results: Sequences can lack the tags named with a protein.

Chains of the proteins cited; added tags and fusions are not shown. Lines headed by an entry give the natural chain unless they say otherwise; changes in a name come on top.
UniProt Q9R0P9: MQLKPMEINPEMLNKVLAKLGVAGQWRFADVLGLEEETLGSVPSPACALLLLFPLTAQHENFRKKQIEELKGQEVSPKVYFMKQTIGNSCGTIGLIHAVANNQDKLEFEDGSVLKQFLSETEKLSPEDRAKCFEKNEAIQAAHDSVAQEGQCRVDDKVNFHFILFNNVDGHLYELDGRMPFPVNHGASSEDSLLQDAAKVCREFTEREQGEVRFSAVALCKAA
UniProt P09936: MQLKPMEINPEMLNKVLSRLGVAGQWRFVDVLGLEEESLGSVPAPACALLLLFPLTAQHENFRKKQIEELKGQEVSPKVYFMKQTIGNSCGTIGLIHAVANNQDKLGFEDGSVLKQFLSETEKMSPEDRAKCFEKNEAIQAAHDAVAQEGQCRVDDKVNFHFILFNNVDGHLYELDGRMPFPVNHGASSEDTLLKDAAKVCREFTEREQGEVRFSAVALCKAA
UniProt Q9GZV5: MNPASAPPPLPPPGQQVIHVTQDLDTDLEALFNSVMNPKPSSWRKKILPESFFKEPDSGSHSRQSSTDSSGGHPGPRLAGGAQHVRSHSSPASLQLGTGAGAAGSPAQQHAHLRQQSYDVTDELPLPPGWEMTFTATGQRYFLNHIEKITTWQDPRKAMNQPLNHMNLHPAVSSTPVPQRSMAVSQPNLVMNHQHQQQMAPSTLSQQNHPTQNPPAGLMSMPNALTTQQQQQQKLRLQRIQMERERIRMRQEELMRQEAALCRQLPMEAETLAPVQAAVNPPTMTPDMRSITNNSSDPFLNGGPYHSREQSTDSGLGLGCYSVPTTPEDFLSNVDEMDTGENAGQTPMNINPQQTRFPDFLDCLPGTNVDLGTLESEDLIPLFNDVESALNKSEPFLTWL
UniProt Q9EPK5: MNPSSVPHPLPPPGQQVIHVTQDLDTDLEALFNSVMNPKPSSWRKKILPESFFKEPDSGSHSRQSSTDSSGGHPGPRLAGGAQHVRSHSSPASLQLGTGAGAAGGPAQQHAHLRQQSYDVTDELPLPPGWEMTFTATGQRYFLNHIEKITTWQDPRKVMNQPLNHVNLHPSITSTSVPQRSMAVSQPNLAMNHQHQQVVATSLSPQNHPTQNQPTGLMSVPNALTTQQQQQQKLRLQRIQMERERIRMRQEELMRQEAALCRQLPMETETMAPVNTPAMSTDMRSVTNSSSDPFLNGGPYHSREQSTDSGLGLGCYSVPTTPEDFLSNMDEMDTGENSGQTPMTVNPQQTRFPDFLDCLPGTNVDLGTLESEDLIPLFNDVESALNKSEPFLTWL

This is an account of results in paper PMC10197889.

Test [1] deals with ubiquitin C-terminal hydrolase 1 (UCHL1), endogenous in mouse BMMs (mouse (endogenous in BMMs)) (UniProt Q9R0P9). As to the kind of experiment: co-IP; endogenous proteins in mouse BMM lysates (wild-type, f/f or LysM-Cre UCHL1 cKO); immunoprecipitation with anti-UCHL1, anti-TAZ or control IgG at 4°C overnight, protein A/G beads 4 h, washed 5 times with PBS, western blot. (In general: A western blot detects proteins with antibodies after separation by electrophoresis.)

A further test deals with MYC-tagged UCHL1 (human) (UniProt P09936). As to the kind of experiment: co-IP; HEK-293T cells co-transfected with tagged plasmids (with or without TAZ overexpression); lysates immunoprecipitated (anti-Flag) at 4°C overnight, protein A/G beads 4 h, washed 5 times with PBS, western blot.
The target in a further test is FLAG-tagged TAZ (human) (UniProt Q9GZV5). The test is described as above.
In test [2] the target is WW domain-containing transcription regulator protein 1 (WWTR1, TAZ), endogenous in mouse BMMs (mouse (endogenous in BMMs)) (UniProt Q9EPK5). As to the kind of experiment: co-IP; endogenous proteins in mouse BMM lysates (wild-type, f/f or LysM-Cre UCHL1 cKO); immunoprecipitation with anti-UCHL1, anti-TAZ or control IgG at 4°C overnight, protein A/G beads 4 h, washed 5 times with PBS, western blot.

Turning to “WW domain-containing transcription regulator protein 1 (WWTR1, TAZ), endogenous in mouse BMMs (from UniProt Q9EPK5 1-395)”, the binding result in test [1] is “binds”.
Turning to “Segment 2 of TAZ (amino acids 101-200) (from UniProt Q9GZV5 101-200) (domain or fragment)”, in the test with MYC-tagged UCHL1 (human), the binding entry is reported as “binds”.

B1: full-length Myc-NFATC1 (protein, UniProt O95644 1-943)
chain: MPSTSFPVPSKFPLGPAAAVFGRGETLGPAPRAGGTMKSAEEEHYGYASSNVSPALPLPTAHSTLPAPCHNLQTSTPGIIPPADHPSGYGAALDGGPAGYFLSSGHTRPDGAPALESPRIEITSCLGLYHNNNQFFHDVEVEDVLPSSKRSPSTATLSLPSLEAYRDPSCLSPASSLSSRSCNSEASSYESNYSYPYASPQTSPWQSPCVSPKTTDPEEGFPRGLGACTLLGSPRHSPSTSPRASVTEESWLGARSSRPASPCNKRKYSLNGRQPPYSPHHSPTPSPHGSPRVSVTDDSWLGNTTQYTSSAIVAAINALTTDSSLDLGDGVPVKSRKTTLEQPPSVALKVEPVGEDLGSPPPPADFAPEDYSSFQHIRKGGFCDQYLAVPQHPYQWAKPKPLSPTSYMSPTLPALDWQLPSHSGPYELRIEVQPKSHHRAHYETEGSRGAVKASAGGHPIVQLHGYLENEPLMLQLFIGTADDRLLRPHAFYQVHRITGKTVSTTSHEAILSNTKVLEIPLLPENSMRAVIDCAGILKLRNSDIELRKGETDIGRKNTRVRLVFRVHVPQPSGRTLSLQVASNPIECSQRSAQELPLVEKQSTDSYPVVGGKKMVLSGHNFLQDSKVIFVEKAPDGHHVWEMEAKTDRDLCKPNSLVVEIPPFRNQRITSPVHVSFYVCNGKRKRSQYQRFTYLPANVPIIKTEPTDDYEPAPTCGPVSQGLSPLPRPYYSQQLAMPPDPSSCLVAGFPPCPQRSTLMPAAPGVSPKLHDLSPAAYTKGVASPGHCHLGLPQPAGEAPAVQDVPRPVATHPGSPGQPPPALLPQQVSAPPSSSCPPGLEHSLCPSSPSPPLPPATQEPTCLQPCSPACPPATGRPQHLPSTVRRDESPTAGPRLLPEVHEDGSPNLAPIPVTVKREPEELDQLYLDDVNEIIRNDLSSTSTHS
Regarding B1, the binding entry in the test with FLAG-tagged TAZ (human) is “binds”.

B2: nuclear factor of activated T cells 1 (NFATC1), endogenous in mouse BMMs (protein, UniProt O88942 1-717)
chain: MPNTSFPVPSKFPLGPPAAVCGSGETLRPAPPSGGTMKAAEEEHYSYVSPSVTSTLPLPTAHSALPAACHDLQTSTPGISAVPSANHPPSYGGAVDSGPSGYFLSSGNTRPNGAPTLESPRIEITSYLGLHHGSGQFFHDVEVEDVLPSCKRSPSTATLHLPSLEAYRDPSCLSPASSLSSRSCNSEASSYESNYSYPYASPQTSPWQSPCVSPKTTDPEEGFPRSLGACHLLGSPRHSPSTSPRASITEESWLGARGSRPTSPCNKRKYSLNGRQPSCSPHHSPTPSPHGSPRVSVTEDTWLGNTTQYTSSAIVAAINALTTDSTLDLGDGVPIKSRKTALEHAPSVALKVEPAGEDLGTTPPTSDFPPEEYTFQHLRKGAFCEQYLSVPQASYQWAKPKSLSPTSYMSPSLPALDWQLPSHSGPYELRIEVQPKSHHRAHYETEGSRGAVKASAGGHPIVQLHGYLENEPLTLQLFIGTADDRLLRPHAFYQVHRITGKTVSTTSHEIILSNTKVLEIPLLPENNMRAIIDCAGILKLRNSDIELRKGETDIGRKNTRVRLVFRVHIPQPNGRTLSLQVASNPIECSQRSAQELPLVEKQSTDSYPVIGGKKMVLSGHNFLQDSKVIFVEKAPDGHHVWEMEAKTDRDLCKPNSLVVEIPPFRNQRITSPAQVSFYVCNGKRKRSQYQRFTYLPANGNSVFLTLSSESELRGGFY
For the molecule B2, in test [2], the binding result is given as “binds”.
